Test results taken from patent US20080085886A1, “Aza-benzofuranyl compounds and methods of use” (GENENTECH, INC., priority 2006, published 2008).
Some results were stated once for a whole list of compounds, not compound by compound.

Chains of the proteins cited; added tags and fusions are not shown.
UniProt Q02750, whole entry S218D/S222D: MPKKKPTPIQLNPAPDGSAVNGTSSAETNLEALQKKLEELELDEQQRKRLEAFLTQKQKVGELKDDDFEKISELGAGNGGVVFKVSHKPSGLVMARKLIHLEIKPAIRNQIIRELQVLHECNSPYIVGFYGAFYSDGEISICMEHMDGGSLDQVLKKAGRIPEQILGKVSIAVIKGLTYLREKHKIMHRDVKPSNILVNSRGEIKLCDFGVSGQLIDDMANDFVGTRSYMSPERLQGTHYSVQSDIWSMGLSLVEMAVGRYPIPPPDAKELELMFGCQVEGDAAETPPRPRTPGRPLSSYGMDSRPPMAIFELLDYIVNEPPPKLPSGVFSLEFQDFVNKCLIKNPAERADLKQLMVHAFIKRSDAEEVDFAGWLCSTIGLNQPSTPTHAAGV

Biological target: Constitutively activated human mutant MEK1 (Homo sapiens, UniProt Q02750)
Test: MEK assay (MEK activity assay), Example 1a or 1b
Assay type: biochemical
Settings: assay described either in Example 1a or 1b; 50 μM ATP, GST-ERK1 substrate, HTRF

Row | SMILES | IC50
1 | Cc1cncc2c(Nc3ccc(I)cc3F)c(C(=O)N3C[C@H](O)C[C@H]3CO)oc12 [Example 154, [3-(2-Fluoro-4-iodo-phenylamino)-7-methyl-furo[3,2-c]pyridin-2-yl]-((2S,4R)-4-hydroxy-2-hydroxymethyl-pyrrolidin-1-yl)-methanone] | < 10 µM
2 | O=C(NOCCO)c1oc2ccncc2c1Nc1ccc(Br)cc1F [Example 53, N-(2-hydroxyethoxy)-3-(4-Bromo-2-fluorophenylamino)furo[3,2-c]pyridine-2-carboxamide] | < 10 µM
3 | O=C(c1oc2ccncc2c1Nc1ccc(I)cc1F)N1C[C@H](O)[C@@H](O)[C@H]1CO [Example 160, (3-(2-fluoro-4-iodophenylamino)furo[3,2-c]pyridin-2-yl)((2R,3S,4S)-3,4-dihydroxy-2-(hydroxymethyl)pyrrolidin-1-yl)methanone] | < 10 µM
4 | O=C(c1oc2ccncc2c1Nc1ccc(I)cc1F)N1CC[C@@H](O)[C@H]1CO [Example 123] | < 10 µM
5 | CC(C)CONC(=O)c1oc2ccncc2c1Nc1ccc(I)cc1F [Example 42, (2-Fluoro-4-iodo-phenylamino)-N-isobutoxyfuro[3,2-c]pyridine-2-carboxamide] | < 10 µM
6 | O=C(NOCCO)c1oc2c(F)cncc2c1Nc1ccc(I)cc1F [Example 139, 7-Fluoro-3-(2-fluoro-4-iodo-phenylamino)-furo[3,2-c]pyridine-2-carboxylic acid (2-hydroxy-ethoxy)-amide] | < 10 µM
7 | CC(C)(CO)ONC(=O)c1oc2ccncc2c1Nc1ccc(I)cc1F [Example 113, N-(1-hydroxy-2-methylpropan-2-yloxy)-3-(2-Fluoro-4-iodo-phenylamino)furo[3,2-c]pyridine-2-carboxamide] | < 10 µM
8 | CC(C)(CCO)ONC(=O)c1oc2ccncc2c1Nc1ccc(I)cc1F [Example 114, 3-(2-Fluoro-4-iodo-phenylamino)-N-(4-hydroxy-2-methylbutan-2-yloxy)furo[3,2-c]pyridine-2-carboxamide] | < 10 µM
9 | O=C(c1oc2c(F)cncc2c1Nc1ccc(I)cc1F)N1CC[C@@H](O)C1 [Example 157, [7-Fluoro-3-(2-fluoro-4-iodo-phenylamino)-furo[3,2-c]pyridin-2-yl]-((R)-3-hydroxy-pyrrolidin-1-yl)-methanone] | < 10 µM
10 | CN(CCCO)C(=O)c1oc2ccncc2c1Nc1ccc(I)cc1F [Example 129, 3-(2-fluoro-4-iodophenylamino)-N-(3-hydroxypropyl)-N-methylfuro[3,2-c]pyridine-2-carboxamide] | < 10 µM
11 | O=C(NCCOCCO)c1oc2ccncc2c1Nc1ccc(I)cc1F [Example 66, 3-(2-fluoro-4-iodophenylamino)-N-(2-(2-hydroxyethoxy)ethyl)furo[3,2-c]pyridine-2-carboxamide] | < 10 µM
12 | C[C@H](O)CONC(=O)c1oc2c(F)cncc2c1Nc1ccc(I)cc1F [Example 155, 7-Fluoro-3-(2-fluoro-4-iodo-phenylamino)-furo[3,2-c]pyridine-2-carboxylic acid ((S)-2-hydroxy-propoxy)-amide] | < 10 µM
13 | O=C(NOCCO)c1oc2ccncc2c1Nc1ccc(CO)cc1F [Example 33, 3-(2-Fluoro-4-hydroxymethyl-phenyl-amino)-furo[3,2-c]pyridine-2-carboxylic acid (2-hydroxy-ethoxy)-amide] | < 10 µM
14 | O=C(NCCc1c[nH]cn1)c1oc2ccncc2c1Nc1ccc(I)cc1F [Example 143, 3-(2-Fluoro-4-iodo-phenylamino)-furo[3,2-c]pyridine-2-carboxylic acid (2-(1H-imidazol-4-yl)-ethyl]-amide] | < 10 µM
15 | O=C(c1oc2ccncc2c1Nc1ccc(I)cc1F)N1C[C@@H](O)[C@H](O)[C@H]1CO [Example 124, (3-(2-fluoro-4-iodophenylamino)furo[3,2-c]pyridin-2-yl)((2R,3R,4R)-3,4-dihydroxy-2-(hydroxymethyl)pyrrolidin-1-yl)methanone] | < 10 µM
16 | O=C(NOCc1ccccn1)c1oc2ccncc2c1Nc1ccc(I)cc1F [Example 115, N-((pyridine-2-yl)methoxy)3-(2-Fluoro-4-iodo-phenylamino)furo(3,2-c]pyridine-2-carboxamide] | < 10 µM
17 | CS(=O)(=O)NC(=O)c1oc2ccncc2c1Nc1ccc(I)cc1F [Example 57, N-[3-(2-Fluoro-4-iodo-phenylamino)-furo[3,2-c]pyridine-2-carbonyl]-methanesulfonamide] | < 10 µM
18 | O=C(c1oc2ccncc2c1Nc1cc(F)c(-c2cn[nH]c2)cc1F)N1CC[C@@H](O)C1 [Example 102, (3-(2,5-difluoro-4-(4-pyrazolyl)phenylamino)furo[3,2-c]pyridin-2-yl)((R)-3-hydroxypyrrolidin-1-yl)methanone] | < 10 µM
19 | O=C(NOCCO)c1oc2ccnc(Cl)c2c1Nc1ccc(I)cc1F [Example 147, 4-Chloro-3-(2-fluoro-4-iodo-phenylamino)-furo[3,2-c]pyridine-2-carboxylic acid (2-hydroxy-ethoxy)-amide] | < 10 µM
20 | O=C(c1oc2ccncc2c1Nc1ccc(I)cc1F)N1CCCC1c1nccs1 (centres unmarked) [Example 77, (3-(2-fluoro-4-iodophenylamino)furo[3,2-c]pyridin-2-yl)(2-(thiazol-2-yl)pyrrolidin-1-yl)methanone] | < 10 µM
21 | O=C(c1oc2ccncc2c1Nc1ccc(I)cc1F)N1CCSC1 [Example 69, (3-(2-fluoro-4-iodophenylamino)furo[3,2-c]pyridin-2-yl)(thiazolidin-3-yl)methanone] | < 10 µM

Row | SMILES | IC50
22 | O=C(NCCCONC(=O)c1oc2ccncc2c1Nc1ccc(I)cc1F)c1ccccn1 [Example 46] | < 10 µM
23 | O=C(c1oc2ccncc2c1Nc1ccc(I)cc1F)N1CCOCC1 [Example 90, (3-(2-fluoro-4-iodophenylamino)furo[3,2-c]pyridin-2-yl)(morpholino)methanone] | < 10 µM
24 | O=C(NOCCO)c1oc2c(-c3ccccc3)cncc2c1Nc1ccc(I)cc1F [Example 133, 3-(2-Fluoro-4-iodo-phenylamino)-7-phenyl-furo[3,2-c]pyridine-2-carboxylic acid (2-hydroxy-ethoxy)-amide] | < 10 µM
25 | CC(C)NC(=O)c1oc2ccncc2c1Nc1ccc(I)cc1F [Example 63, 3-(2-fluoro-4-iodophenylamino)-N-isopropylfuro[3,2-c]pyridine-2-carboxamide] | < 10 µM
26 | O=C(c1oc2ccncc2c1Nc1ccc(I)cc1F)N1CCC[C@@H](O)C1 [Example 89, (3-(2-fluoro-4-iodophenylamino)furo[3,2-c]pyridin-2-yl)((R)-3-hydroxypiperidin-1-yl)methanone] | < 10 µM
27 | CN(CCO)C(=O)c1oc2ccncc2c1Nc1ccc(I)cc1F [Example 81, 3-(2-fluoro-4-iodophenylamino)-N-(2-hydroxyethyl)-N-methylfuro[3,2-c]pyridine-2-carboxamide] | < 10 µM
28 | O=C(c1oc2ccncc2c1Nc1ccc(I)cc1F)N1CCS(=O)(=O)CC1 [Example 101, (3-(2-fluoro-4-iodophenylamino)furo[3,2-c]pyridin-2-yl)(1,1-dioxothiomorpholin-4-yl)methanone] | < 10 µM
29 | O=C(NOC1CCCNC1)c1oc2ccncc2c1Nc1ccc(I)cc1F (centres unmarked) [Example 140, 3-(2-Fluoro-4-iodo-phenylamino)-furo[3,2-c]pyridine-2-carboxylic acid (piperdin-3-yloxy)-amide] | < 10 µM
30 | CN(C)C(=O)c1oc2c(CO)cncc2c1Nc1ccc(I)cc1F [Example 105, 3-(2-Fluoro-4-iodo-phenylamino)-7-hydroxymethyl-furo[3,2-c]pyridine-2-carboxylic acid dimethylamide] | < 10 µM
31 | CC(C)(O)COC(=O)c1oc2ccncc2c1Nc1ccc(I)cc1F [Example 52, 2-hydoxy-2-methylpropyl-3-(2-Fluoro-4-iodo-phenylamnio)furo[3,2-c]pyridine-2-carboxylate] | < 10 µM
32 | O=C(NOCc1ccccc1)c1oc2ccncc2c1Nc1ccc(I)cc1F [Example 44, (2-Fluoro-4-iodo-phenylamino)-N-benzyloxyfuro[3,2-c]pyridine-2-carboxamide] | < 10 µM
33 | CC(C)(CO)ONC(=O)c1oc2c(F)cncc2c1Nc1ccc(I)cc1F [Example 156, 7-Fluoro-3-(2-fluoro-4-iodo-phenylamino)-furo[3,2-c]pyridine-2-carboxylic acid (2-hydroxy-1,1-dimethyl-ethoxy)-amide] | < 10 µM
34 | O=C(NOCCCO)c1oc2ccncc2c1Nc1ccc(I)cc1F [Example 45, (2-Fluoro-4-iodo-phenyl amino)-N-(3-hydroxypropoxy)furo[3,2-c]pyridine-2-carboxamide] | < 10 µM
35 | O=C(c1oc2ccncc2c1Nc1ccc(I)cc1F)N1CCCC(CO)C1 (centres unmarked) [Example 86, (3-(2-fluoro-4-iodophenylamino)furo[3,2-c]pyridin-2-yl)(3-(hydroxylmethyl)piperidin-1-yl)methanone] | < 10 µM
36 | O=C(Nc1cc[nH]n1)c1oc2ccncc2c1Nc1ccc(I)cc1F [Example 130, 3-(2-fluoro-4-iodophenylamino)-N-(1H-pyrazol-3-yl)furo[3,2-c]pyridine-2-carboxamide] | < 10 µM
37 | O=C(c1oc2ccncc2c1Nc1ccc(I)cc1F)N1CCCCC1CO (centres unmarked) [Example 80] | < 10 µM
38 | O=C(NO)c1oc2ccncc2c1Nc1ccc(I)cc1F [Example 24, 3-(2-Fluoro-4-iodo-phenylamino)-furo[3,2-c]pyridine-2-carboxylic acid hydroxyamide] | < 10 µM
39 | O=C(NOC[C@H](O)CO)c1oc2c(F)cncc2c1Nc1ccc(I)cc1F [Example 159, 7-Fluoro-3-(2-fluoro-4-iodo-phenylamino)-furo[3,2-c]pyridine-2-carboxylic acid ((R)-2,3-dihydroxy-propoxy)-amide] | < 10 µM
40 | CC(C)ONC(=O)c1oc2ccncc2c1Nc1ccc(I)cc1F [Example 43, (2-Fluoro-4-iodo-phenylamino)-N-isopropoxyfuro[3,2-c]pyridine-2-carboxamide] | < 10 µM
41 | O=C(c1oc2ccncc2c1Nc1ccc(I)cc1F)N1C[C@H](O)[C@@H](O)C1 [Example 60, (3-(2-fluoro-4-iodophenyl amino)furo[3,2-c]pyridin-2-yl)((3S,4S)-3,4-dihydroxypyrrolidin-1-yl)methanone] | < 10 µM
